Laboratory results: PubChem BioAssay AID504808 (Drosophila RNAi Screening Center, 2011)
The deposit covers about 21,000 reagents; below is an unselected part of those with a known target gene and a result. In the full data, 18 (0.084%) are marked active. 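Raw counts without plate normalisation, one of two replicates; the ratio scores behind the calls were not deposited.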 Names joined by + are all predicted targets of the reagent. Not stated in the record: the amount of reagent, the time to read-out.

Purpose: 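Fly genes required to hold E2F transcription in check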 (primary screen)
Cells: Drosophila S2 cells
Knock-down reagent: long dsRNA against Drosophila genes
Measurement: 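Dual luciferase plate measurements; E2F-specific signal taken as firefly over Renilla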
Scale: E2F firefly: higher = more E2F reporter activity; Renilla normaliser: higher = more normaliser reporter signal
Active means: 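Called active if the normalised E2F reporter went up by over 50%; the cutoff is arbitrary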

| gene | dsRNA | E2F firefly, rep 1 | Renilla normaliser, rep 1 | Outcome |
| --- | --- | --- | --- | --- |
| gprs | DRSC06761 | 1.38e5 | 4713 | inactive |
| Tsp42Ee (Tetraspanin 42Ee) | DRSC05947 | 1.50e5 | 5117 | inactive |
| CG9302 | DRSC03191 | 47271 | 3457 | inactive |
| CG15212 | DRSC10212 | 98238 | 4058 | inactive |
| MESR6 (Misexpression suppressor of ras 6) | DRSC10720 | 73145 | 3519 | inactive |
| Ugt37A2 (UDP-glycosyltransferase family 37 member A2) | DRSC15861 | 1.30e5 | 5653 | inactive |
| Dnaaf3 (Dynein axonemal assembly factor 3) | DRSC06684 | 1.48e5 | 5284 | inactive |
| Tl (Toll) | DRSC16885 | 1824 | 988 | inactive |
| CG15615 | DRSC06568 | 1.35e5 | 5050 | inactive |
| Mau2 | DRSC15550 | 68830 | 3253 | inactive |
| Lcp4 (Larval cuticle protein 4) | DRSC07458 | 1.41e5 | 4778 | inactive |
| CG42824 + CG42823 | DRSC13230 | 73314 | 2042 | inactive |
| CG1288 | DRSC12538 | 1.20e5 | 5498 | inactive |
| Hap40 (Huntingtin-associated protein 40 kDa) | DRSC20085 | 7626 | 664 | inactive |
| a6 | DRSC18733 | 1706 | 1044 | inactive |
| CR14499 (retired record) | DRSC06470 | 1.40e5 | 4826 | inactive |
| l(2)34Fd (lethal (2) 34Fd) | DRSC01911 | 79532 | 3835 | inactive |
| Gbeta76C (G protein beta subunit 76C) | DRSC11174 | 77965 | 3125 | inactive |
| SdhA (Succinate dehydrogenase, subunit A (flavoprotein)) | DRSC07547 | 93333 | 4041 | inactive |
| Cul6 (Cullin 6) | DRSC09830 | 78527 | 3918 | inactive |
| Ypel (Yippee-like) | DRSC17996 | 8005 | 648 | inactive |
| CG17328 | DRSC01927 | 1.09e5 | 4452 | inactive |
| CG8630 | DRSC16441 | 94135 | 6329 | inactive |
| l(3)72Dp (lethal (3) 72Dp) | DRSC10477 | 1.55e5 | 8491 | inactive |
| Kcmf1 (Potassium channel modulatory factor 1) | DRSC14459 | 57125 | 3545 | inactive |
| CG4995 | DRSC02801 | 77580 | 3516 | inactive |
| AsnRS (Asparaginyl-tRNA synthetase) | DRSC01990 | 74319 | 2717 | inactive |
| cN-IIIB (cytosolic 5'-nucleotidase IIIB) | DRSC04359 | 82787 | 3968 | inactive |
| PpV (Protein phosphatase V) | DRSC18700 | 1.25e5 | 5905 | inactive |
| CG9356 | DRSC16476 | 63609 | 3669 | inactive |
| opm (opossum) | DRSC20141 | 8230 | 796 | inactive |
| Tdg (Thymine DNA glycosylase) | DRSC17119 | 88717 | 2432 | inactive |
| Tdg (Thymine DNA glycosylase) | DRSC17169 | 1.19e5 | 5257 | inactive |
| CG12164 | DRSC06115 | 86970 | 3817 | inactive |
| CG13771 | DRSC02277 | 1.40e5 | 4904 | inactive |
| mRpL35 (mitochondrial ribosomal protein L35) | DRSC14586 | 1.38e5 | 8744 | inactive |
| CG30378 | DRSC05071 | 1.23e5 | 5064 | inactive |
| CG17010 | DRSC02559 | 77175 | 3395 | inactive |
| Dolk (Dolichol kinase) | DRSC07143 | 1.36e5 | 4901 | inactive |
| CG14384 | DRSC14842 | 1.04e5 | 7783 | inactive |
| CG4297 | DRSC00651 | 1.90e5 | 6176 | inactive |
| Pxn (Peroxidasin) | DRSC08685 | 79469 | 3335 | inactive |
| CG4768 | DRSC19917 | 1.87e5 | 6307 | inactive |
| CG32170 | DRSC09452 | 1.35e5 | 4456 | inactive |
| PGRP-SC1a (Peptidoglycan recognition protein SC1a) | DRSC06482 | 1.56e5 | 5278 | inactive |
| CG14613 | DRSC20625 | 1.41e5 | 5264 | inactive |
| CG8229 | DRSC07114 | 3466 | 122 | inactive |
| CG31787 | DRSC01632 | 1.32e5 | 4710 | inactive |
| CG15876 | DRSC08484 | 1.10e5 | 4486 | inactive |
| CG14635 | DRSC17945 | 53708 | 3520 | inactive |
| ItgaPS4 (Integrin alphaPS4 subunit) | DRSC06630 | 1.15e5 | 4127 | inactive |
| Nepl7 (Neprilysin-like 7) | DRSC02495 | 96278 | 4469 | inactive |
| Ugt36E1 (UDP-glycosyltransferase family 36 member E1) | DRSC02599 | 87584 | 4094 | inactive |
| Pdf (Pigment-dispersing factor) | DRSC16786 | 51680 | 3003 | inactive |
| Irk3 (Inwardly rectifying potassium channel 3) | DRSC02047 | 87923 | 3693 | inactive |
| CG8209 | DRSC10970 | 90261 | 3665 | inactive |
| dos | DRSC07992 | 99573 | 3414 | inactive |
| dos | DRSC08713 | 99125 | 4178 | inactive |

Ordered by “Renilla normaliser, rep 1” (lowest first): 3 of the entries above.
| gene | dsRNA | E2F firefly, rep 1 | Renilla normaliser, rep 1 | Outcome |
| --- | --- | --- | --- | --- |
| a6 | DRSC18733 | 1706 | 1044 | inactive |
| l(2)34Fd (lethal (2) 34Fd) | DRSC01911 | 79532 | 3835 | inactive |
| CR14499 (retired record) | DRSC06470 | 1.40e5 | 4826 | inactive |
